Values of other authors, collected in US20240278014A1, “METHODS AND PHARMACEUTICAL FORMULATIONS FOR MODULATING THE PROPERTIES OF THE BLOOD LABYRINTH BARRIER” (Cochlear Limited, priority 2021, published 2024).
At least one compound was matched to its structure with a doubt left.

Conditions: cited from earlier work

C[C@@H]1C[C@H]2[C@@H]3CCC4=CC(=O)C=C[C@]4(C)[C@@]3(F)[C@@H](O)C[C@]2(C)[C@@]1(O)C(=O)CO [Dexamethasone]
loss of auditory sensory cells after exposure to TNF-α (formulated in a polymer and coated on electrodes of an implanted CI): attenuate the loss of auditory sensory cells | hearing loss induced by CI implantation (sustained release application): could be reduced
